These are yes or no findings as the source states them, for the method shown. In cells and extracts the contact can be indirect. Some results given as binding are weak or reduced against the parent protein; the word gives no strength.
Molecular target: T1, Tank‐binding kinase 1 (TBK1) (human (endogenous in HeLa)) (UniProt Q9UHD2)
T1 sequence: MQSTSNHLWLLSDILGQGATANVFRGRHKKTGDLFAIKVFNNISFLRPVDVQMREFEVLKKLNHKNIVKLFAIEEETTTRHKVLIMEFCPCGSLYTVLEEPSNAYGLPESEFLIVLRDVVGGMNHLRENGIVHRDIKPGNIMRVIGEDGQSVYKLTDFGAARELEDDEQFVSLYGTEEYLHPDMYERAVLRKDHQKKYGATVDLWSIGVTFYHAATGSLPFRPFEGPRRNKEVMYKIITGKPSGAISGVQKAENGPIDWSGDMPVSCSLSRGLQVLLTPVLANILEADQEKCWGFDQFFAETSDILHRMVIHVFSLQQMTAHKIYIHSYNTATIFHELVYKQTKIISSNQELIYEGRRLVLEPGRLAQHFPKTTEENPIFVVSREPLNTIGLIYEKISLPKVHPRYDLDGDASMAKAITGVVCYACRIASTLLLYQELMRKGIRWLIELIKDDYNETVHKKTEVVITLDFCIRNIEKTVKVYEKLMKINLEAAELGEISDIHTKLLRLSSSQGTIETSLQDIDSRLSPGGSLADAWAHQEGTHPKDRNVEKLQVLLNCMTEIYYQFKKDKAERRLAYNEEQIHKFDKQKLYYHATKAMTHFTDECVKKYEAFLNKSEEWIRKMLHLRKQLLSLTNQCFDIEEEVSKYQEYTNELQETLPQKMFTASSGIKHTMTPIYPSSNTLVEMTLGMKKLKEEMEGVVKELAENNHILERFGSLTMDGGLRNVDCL
Test: co-IP; HeLa cell lysates; reciprocal Co-IP with anti-TBK1 antibody (blot anti-AGO2) or anti-AGO2 antibody (blot anti-TBK1); endogenous proteins

By UniProt entry, the sequences of proteins in these tests, tags left out.
UniProt Q9UKV8: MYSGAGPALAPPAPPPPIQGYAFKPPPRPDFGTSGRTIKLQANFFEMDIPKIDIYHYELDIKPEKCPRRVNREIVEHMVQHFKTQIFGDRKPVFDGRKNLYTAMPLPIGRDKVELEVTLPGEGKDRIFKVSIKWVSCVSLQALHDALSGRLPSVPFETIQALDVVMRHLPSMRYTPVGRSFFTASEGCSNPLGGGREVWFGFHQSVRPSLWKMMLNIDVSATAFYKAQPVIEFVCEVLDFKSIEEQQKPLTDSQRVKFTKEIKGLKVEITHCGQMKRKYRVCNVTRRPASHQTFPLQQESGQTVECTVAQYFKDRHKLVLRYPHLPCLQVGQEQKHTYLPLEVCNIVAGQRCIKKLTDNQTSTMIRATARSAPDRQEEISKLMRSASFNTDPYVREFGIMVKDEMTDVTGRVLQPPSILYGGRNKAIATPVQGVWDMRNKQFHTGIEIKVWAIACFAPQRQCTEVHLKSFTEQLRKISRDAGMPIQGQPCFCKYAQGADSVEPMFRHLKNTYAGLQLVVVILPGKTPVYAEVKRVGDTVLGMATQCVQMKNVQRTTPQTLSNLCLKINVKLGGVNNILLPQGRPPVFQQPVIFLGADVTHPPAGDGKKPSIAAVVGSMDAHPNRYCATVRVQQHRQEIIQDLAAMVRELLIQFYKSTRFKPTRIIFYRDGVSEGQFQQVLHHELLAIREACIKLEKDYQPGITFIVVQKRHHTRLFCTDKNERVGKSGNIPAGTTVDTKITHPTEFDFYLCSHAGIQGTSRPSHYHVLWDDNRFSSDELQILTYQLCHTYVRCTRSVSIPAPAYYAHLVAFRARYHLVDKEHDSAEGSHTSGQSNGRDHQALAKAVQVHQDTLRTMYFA

**Q.** Which binding does the source give for AGO2 (from UniProt Q9UKV8 1-859) here?
**A.** The binding was “binds”.

From PMC11022703
